According to US9011988B2, “Liquid-crystal compound, liquid-crystal composition, light absorption anisotropic film, and liquid-crystal display device” (Fujifilm Corporation, priority 2010, dated 2015):

Experiment: Dichroic ratio and orientation order of light absorption anisotropic film
Conditions: orientation order of the light absorption anisotropic film, S=(D-1)/(D+2) calculated from the dichroic ratio

First: CCCCCCOc1ccc(N=Nc2ccc(C=Cc3cc(OCCOCCOCCO)c(C=Cc4ccc(N=Nc5ccc(OCCCCCC)cc5)cc4)cc3OC)cc2)cc1 [A-4]
Second: CCCCCCOc1ccc(N=Nc2ccc(C=Cc3cc(OCCOCCOCCOC)c(C=Cc4ccc(N=Nc5ccc(OCCCCCC)cc5)cc4)cc3OC)cc2)cc1 [A-3]
The “Order S” value of the first is lower: 0.93 for the first, 0.94 for the second.

First: CCCCCCOc1ccc(/C=C/c2ccc(/C=C/c3cc(OCCOCCOCCOCCOCCOCCO)c(/C=C/c4ccc(/C=C/c5ccc(OCCCCCC)cc5)cc4)cc3OC)cc2)cc1 [Comparative Compound 2, reference compound]
Second: CCCCCCOc1ccc(N=Nc2ccc(C=Cc3cc(OCCOCCOCCOC)c(C=Cc4ccc(N=Nc5ccc(OCCCCCC)cc5)cc4)cc3OCCOCCOCCOC)cc2)cc1 [A-10]
The “Order S” value of the first is higher: 0.90 for the first, 0.87 for the second.

With CCCCCCCCCCCCCCCCCCOc1cc(C=Cc2ccc(N=Nc3ccc(OCCCCCC)cc3)cc2)c(OC)cc1C=Cc1ccc(N=Nc2ccc(OCCCCCC)cc2)cc1 [A-9] the “Order S” value was 0.72.
